Reference: PubChem BioAssay AID540275 (National Center for Advancing Translational Sciences (NCATS), 2011)
Screen size: about 320,000 compounds; about 620 (0.19%) were called active. This list was built around the results that the source calls inconclusive (neither active nor inactive); the mix of calls is not that of the screen. Rule as the data show it: active = activation above about 80%; inconclusive = between about 30% and that limit; inactive = weaker than that.

Amino acid sequences for entries named in this document (tags omitted).
UniProt Q8NER1, whole entry, looked up: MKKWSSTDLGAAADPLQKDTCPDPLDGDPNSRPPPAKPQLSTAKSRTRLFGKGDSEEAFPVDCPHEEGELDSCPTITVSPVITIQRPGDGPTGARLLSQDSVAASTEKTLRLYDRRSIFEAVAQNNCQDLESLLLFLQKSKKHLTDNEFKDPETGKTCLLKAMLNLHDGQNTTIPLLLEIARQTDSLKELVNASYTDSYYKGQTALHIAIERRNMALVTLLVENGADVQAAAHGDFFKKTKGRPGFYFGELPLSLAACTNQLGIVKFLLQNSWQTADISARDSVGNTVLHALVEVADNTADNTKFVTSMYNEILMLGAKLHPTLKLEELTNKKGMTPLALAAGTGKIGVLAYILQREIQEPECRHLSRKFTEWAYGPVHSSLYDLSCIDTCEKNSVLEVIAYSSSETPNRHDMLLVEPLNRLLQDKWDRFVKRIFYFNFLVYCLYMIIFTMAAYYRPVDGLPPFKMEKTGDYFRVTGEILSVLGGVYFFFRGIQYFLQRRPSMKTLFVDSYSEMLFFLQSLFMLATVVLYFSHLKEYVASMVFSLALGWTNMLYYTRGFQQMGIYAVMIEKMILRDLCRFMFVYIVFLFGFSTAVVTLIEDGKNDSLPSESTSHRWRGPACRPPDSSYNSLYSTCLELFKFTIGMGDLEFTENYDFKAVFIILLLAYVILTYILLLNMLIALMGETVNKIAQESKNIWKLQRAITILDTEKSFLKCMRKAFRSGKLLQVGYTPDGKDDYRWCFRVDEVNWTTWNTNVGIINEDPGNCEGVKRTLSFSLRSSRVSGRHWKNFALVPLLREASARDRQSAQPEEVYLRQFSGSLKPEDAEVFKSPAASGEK

These compounds were tested against Transient receptor potential cation channel subfamily V member 1 (Homo sapiens) (UniProt Q8NER1) (assay: HTS Assay for Compounds that Act as Agonists of the Vanilloid Receptor 1). Settings: TRPV1-expressing cells, Fluo-8 calcium influx, agonist mode; at 8.33 µM, active compounds read high.
Summary of the method: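 Cells expressing TRPV1 were dye-loaded with Fluo-8 and read kinetically: 10 s baseline, 3 min after compound (agonist portion), then 2 min after EC20 capsaicin (allosteric enhancer portion). Calcium-bound dye fluorescence at 480/520 nm.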
Also: 0% is about no effect.

Compound	activation
CC(=O)Nc1nc2n(n1)C(c1ccc(F)cc1)C=C(c1ccccc1)N2 (configuration not stated)	inactive: -4.02%
CCS(=O)(=O)N1CCN(c2cccc(C)c2C)CC1	inconclusive: 35.5%
Cc1ccccc1NC(=O)c1ccc([N+](=O)[O-])o1	inactive: 0.148%
O=c1c2ccccc2nc(-c2ccco2)n1CCc1ccc(O)cc1	inconclusive: 36.8%
O=C(/C=C/c1ccccc1Cl)NCc1ccco1	inconclusive: 31.7%
Oc1ccc(N=Nc2ccc3c(c2)OCCO3)c2cccnc12	inactive: -4.88%
Cc1nc(NC(=O)c2cc3ccccc3o2)ccc1Br	inconclusive: 70.6%
Cc1ccc(S(=O)(=O)N(C)c2ccc(C(=O)Nc3ccc(C)cn3)cc2)cc1	inconclusive: 33%
CCc1ccc(NC(=O)CCn2cccc2)cc1	inconclusive: 32%
COc1cccc(CNC(=O)N2CCN(c3ccccc3Cl)CC2)c1	inconclusive: 33%
C=Cc1ccc(Cn2nc(-c3ccc(C)cc3)ccc2=O)cc1	inconclusive: 48%
Cc1c(C(=O)OC2CCCCC2)[nH]c2c1C(=O)CC(C)(C)C2	inconclusive: 56.6%
CCC(=O)N1CCN(c2ccc(NC(=O)c3cccs3)cc2)CC1	inactive: 1.28%
S=C(NCc1ccco1)NCc1ccccc1Cl	inconclusive: 56%
Cc1ccsc1C(=O)Nc1cccc(-n2cnnn2)c1	inconclusive: 42%
Cc1ccc(N(c2ncnc(N)c2[N+](=O)[O-])C2CCCCC2)cc1	inconclusive: 49.9%
CCN(CC)S(=O)(=O)c1ccc(S(=O)(=O)N(CC(=O)Nc2ccccc2)Cc2ccco2)cc1	inconclusive: 32.9%
Cc1cc(C)nc(/N=C(\N)Nc2cccc(OCc3ccccc3)c2)n1	inactive: 18.4%
N#C/C(=C/c1ccc(Sc2nc3ccccc3[nH]2)o1)c1cccc(Br)c1	inconclusive: 31.2%
O=C(Nc1ccc(Br)cc1)N1CCCCC1	inconclusive: 63.9%
COc1ccc2nc(NC(=O)Nc3ccccc3)sc2c1	inconclusive: 42.4%
C/C(=N/NC(=O)c1ccccc1)C(=O)O	inconclusive: 53.9%
O=C(Nc1ccncc1)c1ccc(Br)cc1	active: 113%
COCCn1c(-c2ccc3ccccc3c2)nc2c1c(=O)[nH]c(=O)n2CC(C)C	inconclusive: 32.9%

Compound	activation
CCc1cc(C(=O)c2ccc(OC)cc2)c(NC(=O)CN2CCCCC2)s1	inconclusive: 34.3%
CC(NCc1nc2ccccc2n1C)C12CC3CC(CC(C3)C1)C2 (configuration not stated)	inconclusive: 39.8%
Cc1ccccc1N1CCN(C2CCCN(C(=O)c3noc4c3CCCC4)C2)CC1 (configuration not stated)	inconclusive: 36.8%
CCn1cc(C(=O)NCc2ccccc2OC)c(=O)c2cc(S(=O)(=O)N(C)C)ccc21	inconclusive: 78.7%
COc1ccc(CCNC(=O)CCCc2ccccc2)cc1OC	inconclusive: 44.6%
COc1cc2c(cc1OC)CN(CCOc1ccc(Br)cc1)CC2	inconclusive: 49.1%
Cc1ccc(C(=O)CSc2nnc(COc3ccc(C#N)cc3)n2-c2ccccc2)cc1	inactive: 3.96%
Cc1cc(C)c2cc(C(=O)Nc3ccc(C)c(F)c3)[nH]c2c1	inconclusive: 54.1%
Cc1ccn2c(C(=O)c3ccc(Cl)cc3)cnc2c1	inconclusive: 37.5%
O=S(=O)(c1ccc2nc(COc3ccccc3)[nH]c2c1)N1CCOCC1	inconclusive: 30%
CCCN1C(=O)/C(=C\c2ccncc2)SC1=Nc1ccccc1	inconclusive: 48.4%
O=C(c1cc2c(s1)CCCC2)N1CCN(Cc2ccc3c(c2)OCO3)CC1	inconclusive: 41.4%
O=C(CC1CCCC1)Nc1nc2ccccc2[nH]1	inactive: 1.63%
COc1ccc(C(=O)NCC(c2ccco2)N2CCc3ccccc32)c(OC)c1 (configuration not stated)	inconclusive: 31%
O=C(CCc1nc2ccccc2s1)Nc1cccnc1	inconclusive: 45.4%
O=C(Nc1ccc2oc(=O)ccc2c1)c1ccc(-c2ccccc2[N+](=O)[O-])o1	inconclusive: 31.9%
COc1ccc(N2CCN(C(=O)c3ccc(CNS(=O)(=O)c4ccc(C)cc4)cc3)CC2)cc1	inactive: -0.989%
COc1ccc(C(=O)O/N=C(/c2cccs2)C(C)(C)C)cc1	inconclusive: 38.7%
Cn1ncc(Cl)c1C(=O)NCC1CCCO1 (configuration not stated)	inactive: -3.97%
Cc1nc(-c2ccccc2)sc1C(=O)Nc1ccc(S(N)(=O)=O)cc1	inconclusive: 63.8%
CCOC(=O)c1ccc(NC(=O)Cc2cccs2)cc1	inconclusive: 37.9%
Cc1nn(-c2ccccc2)c(N)c1N=Nc1ccccc1	inconclusive: 55.3%
Cc1ccc(S(=O)(=O)N(C)CCCC(=O)Nc2ccc(F)cc2)cc1	inconclusive: 58%

Part of the list above, with bars between the fields.
Compound | activation
CC(NCc1nc2ccccc2n1C)C12CC3CC(CC(C3)C1)C2 (configuration not stated) | inconclusive: 39.8%
Cc1ccccc1N1CCN(C2CCCN(C(=O)c3noc4c3CCCC4)C2)CC1 (configuration not stated) | inconclusive: 36.8%
CCn1cc(C(=O)NCc2ccccc2OC)c(=O)c2cc(S(=O)(=O)N(C)C)ccc21 | inconclusive: 78.7%
COc1ccc(CCNC(=O)CCCc2ccccc2)cc1OC | inconclusive: 44.6%
COc1cc2c(cc1OC)CN(CCOc1ccc(Br)cc1)CC2 | inconclusive: 49.1%
Cc1ccc(C(=O)CSc2nnc(COc3ccc(C#N)cc3)n2-c2ccccc2)cc1 | inactive: 3.96%
Cc1cc(C)c2cc(C(=O)Nc3ccc(C)c(F)c3)[nH]c2c1 | inconclusive: 54.1%
Cc1ccn2c(C(=O)c3ccc(Cl)cc3)cnc2c1 | inconclusive: 37.5%
O=S(=O)(c1ccc2nc(COc3ccccc3)[nH]c2c1)N1CCOCC1 | inconclusive: 30%
